{"source": "paper PMC9138321", "target": "C-terminal domain of the growth hormone secretagogue (ghrelin) receptor type 1a (GHSR-Cter, 339–366) (human) (UniProt Q92847)", "assay": "SEC-MALS; Superdex 75 10/300 GL, 25 °C, 50 mM BisTris pH 6.7, 50 mM NaCl, 1 mM TCEP, 0.5 mM EDTA; 40 µL injected at 0.5 mL/min; samples at 1.5 mM (V2R-Cter), 0.6 mM (GHSR-Cter), 0.7 mM (β2AR-Cter); both purified", "note": "Results are given in words; binding and its absence hold for the method and conditions named. Where a sequence is shown, tags or fusion partners need not be part of it."}
{"binder": "GFEPFSQRKLSTLKDESSRAWTESSINT (domain or fragment, UniProt Q92847 339-366)", "note": "[C-terminal domain of the growth hormone secretagogue (ghrelin) receptor type 1a (GHSR-Cter, 339–366)]", "values": [{"measurement": "binding", "result": "no binding (tested: 0.6 mM)"}]}
